Paper PMC7606486, “CFAP45 deficiency causes situs abnormalities and asthenospermia by disrupting an axonemal adenine nucleotide homeostasis module” (Nature Communications, 2020)
These are yes or no findings as the source states them, for the method shown. For part of these data: Binding seen in cells or lysates may run through a third protein. Some entries that bind do so weakly or less than the wild type. For part of these data: Where a sequence is shown, tags or fusion partners need not be part of it. Values belong to the binder of their own block, whether it stands above or below them.

Key:
[1] = target: recombinant full-length (p66) CFAP45 (human) (UniProt Q9UL16); assay: co-IP; recombinant, epitope-tagged proteins co-expressed in HEK293 cells; immunoprecipitation of the bait; details only in supplementary figures
[2] = target: myc-tagged CFAP45 (human) (UniProt Q9UL16); assay: co-IP; HEK293 cells cotransfected with myc-DNALI1 and FLAG-CFAP45 or myc-CFAP45 and FLAG-DNALI1; IP with rabbit polyclonal anti-CFAP45 or anti-DNALI1 overnight at 4 °C; IB with monoclonal anti-myc and anti-FLAG
[3] = target: CFAP45 full-length (551 amino acid) GAL4-BD bait (human) (UniProt Q9UL16); assay: two-hybrid; GAL4-based yeast two-hybrid, strain PJ69-4A; CFAP45 as GAL4-BD bait, preys fused to GAL4-AD; growth on selective media (LWH + 3-AT)

binding [1]: binds
B1: recombinant AK8 (enzyme, UniProt Q96MA6-1 1-479)
chain: MDATIAPHRIPPEMPQYGEENHIFELMQNMLEQLLIHQPEDPIPFMIQHLHRDNDNVPRIVILGPPASGKTTIAMWLCKHLNSSLLTLENLILNEFSYTATEARRLYLQRKTVPSALLVQLIQERLAEEDCIKQGWILDGIPETREQALRIQTLGITPRHVIVLSAPDTVLIERNLGKRIDPQTGEIYHTTFDWPPESEIQNRLMVPEDISELETAQKLLEYHRNIVRVIPSYPKILKVISADQPCVDVFYQALTYVQSNHRTNAPFTPRVLLLGPVGSGKSLQAALLAQKYRLVNVCCGQLLKEAVADRTTFGELIQPFFEKEMAVPDSLLMKVLSQRLDQQDCIQKGWVLHGVPRDLDQAHLLNRLGYNPNRVFFLNVPFDSIMERLTLRRIDPVTGERYHLMYKPPPTMEIQARLLQNPKDAEEQVKLKMDLFYRNSADLEQLYGSAITLNGDQDPYTVFEYIESGIINPLPKKIP

binding [2]: binds
B2: FLAG-tagged DNALI1 (protein, UniProt O14645 1-258)
chain: MIPPADSLLKYDTPVLVSRNTEKRSPKARLLKVSPQQPGPSGSAPQPPKTKLPSTPCVPDPTKQAEEILNAILPPREWVEDTQLWIQQVSSTPSTRMDVVHLQEQLDLKLQQRQARETGICPVRRELYSQCFDELIREVTINCAERGLLLLRVRDEIRMTIAAYQTLYESSVAFGMRKALQAEQGKSDMERKIAELETEKRDLERQVNEQKAKCEATEKRESERRQVEEKKHNEEIQFLKRTNQQLKAQLEGIIAPKK

binding [3]: binds
B3: DNALI1 GAL4-AD prey (protein, UniProt O14645 1-258)
chain: B2 chain
